Here are results for one compound from US20030108619A1, “Bone-strengthening agents, food compositions for strengthening bone and feed compositions for strengthening bone” (priority 2000, published 2003).

This data set in a line: Body weight after completion of the feeding, Example 2. It counts as in vivo, rat. Particulars: 50-weeks old normal female Wistar rats, oral once a day for 14 days, CPP 40 mg/100 g body weight, genistein 50 μg/100 g body weight. On the procedure: 2. CPP-administered group: Basic feed+CPP (40 mg/100 g body weight)
3. Genistein-administered group: Basic feed+genistein (50 μg/100 g body weight)
4. CPP+genistein-administered group: Basic feed+CPP (40 mg/100 g body weight)+genistein (50 μg/100 g body weight)
As the CPP, a solution of CPP-III (casein phosphopeptide content 85%) manufactured by Meiji Seika Kaisha, Ltd., dissolved in distilled water was used. As the genistein, a reagent (manufactured by Sigma Chemical Company in U.S. A.) extracted from soybean and highly purified, dissolved in a 10% ethanol solution was used.
Animal groups each consisting of five animals were fed with the basic feed under constant temperature and constant humidity conditions of room temperature 25° C., and 55% humidity. In addition, the control group was administered with 1 ml/100 g body weight of purified distilled water and the other groups were each orally administered with CPP and/or genistein in the above-mentioned amounts once a day for 14 days by using a stomach tube. After 24 hours from the last administration, the rats were sacrificed and the femora were extracted. The extracted femora were used for the measurement of bone components as shown below.
Significant tests of respective measured values were performed by using Student's t-test. Values with a risk factor of 5% or less were taken as significant. […]

SMILES strings stand for the structures.

`O=c1c(-c2ccc(O)cc2)coc2cc(O)cc(O)c12` [Genistein, genistein]: the “Body weight after completion of the feeding” value is recorded as 229.6 ± 7.6 g. The “Body weight after completion of the feeding” value (listed as genistein) turned out to be 229.6 ± 7.6 g.
